Measurements reported in PubChem BioAssay AID1259308 (NCATS, 2017)

- Assay: 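Candidate targets for better recombinant protein yield in mammalian cells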 (primary screen)
- System: human HEK293 embryonic kidney cells stably expressing firefly luciferase (HEK-CMV-Luc2-Hygro)
- Knock-down reagent: single siRNA against human genes, 0.8 pmol siRNA per well
- Timing: 72 h
- Read-out: 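Luciferase light (ONE-Glo) measured on one replicate plate set and viability (CellTiter-Glo) on the other, scaled to a negative control siRNA, with robust z-scores and luciferase per cell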
- Direction: total luciferase, z-score: higher = more reporter protein produced
- Hit rule: 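An siRNA counts as active if its total luciferase robust z-score exceeds 3; genes with two or more such siRNAs out of three were retested with fresh siRNAs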
- Meaning of the calls: active = raised luciferase; inactive = no rise
The deposit covers about 59,000 reagents; this is an unselected part. About 1,510 of them (2.6%) count as active. 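Calls use total luciferase alone and ignore viability, so some active siRNAs may act by altering cell number.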 Unmarked entries are inactive. The numbers tell different reagents against one gene apart. Further read-outs or replicates are left out here.

total luciferase, z-score, by gene and reagent
RBM19 (GeneID 9904): #1 -0.391; #2 0.532; #3 -1.35
FER1L5 (GeneID 90342): #1 0.449; #2 0.143; #3 -0.107
TIMM8B (GeneID 26521): #1 0.124; #2 -1.22; #3 0.2
SRGAP2C (GeneID 653464): #1 1.63; #2 0.18; #3 -0.587
VCAN (GeneID 1462): #1 -0.517; #2 0.231; #3 -0.504
POC1A (GeneID 25886): #1 3.31 (active); #2 0.823; #3 -0.553
ATXN1L (GeneID 342371): #1 0.0357; #2 2.25; #3 0.0802
SLC35A2 (GeneID 7355): #1 1.12; #2 0.488; #3 0.42
FOXD4L1 (GeneID 200350): #1 -0.5; #2 -0.528; #3 0.849
CYP4A11 (GeneID 1579): #1 -0.993; #2 -2.19; #3 -2.84
WBP2NL (GeneID 164684): #1 0.227; #2 -0.0749; #3 -0.288
MIGA2 (GeneID 84895): #1 -0.692; #2 0.674; #3 -0.355
PAK3 (GeneID 5063): #1 2.62; #2 -0.346; #3 0.775
ZNF77 (GeneID 58492): #1 3.76 (active); #2 1.35; #3 0.0855
C11orf68 (GeneID 83638): #1 0.303; #2 -2.43; #3 -1.18
FUT5 (GeneID 2527): #1 -0.61; #2 0.159; #3 0.0148
PTBP2 (GeneID 58155): #1 -0.187; #2 -0.705; #3 -0.211
ZNHIT1 (GeneID 10467): #1 1.16; #2 0.479; #3 -0.695
LGALS3 (GeneID 3958): #1 1.47; #2 0.681; #3 -0.00281

Reformatted: entries from further up.
gene,reagent no.,"total luciferase, z-score"
MIGA2 (GeneID 84895),2,0.674
MIGA2 (GeneID 84895),3,-0.355
PAK3 (GeneID 5063),1,2.62
PAK3 (GeneID 5063),2,-0.346
PAK3 (GeneID 5063),3,0.775
